No constants are given. Whether binding was seen depends on the method and setting. Sequences can lack the tags named with a protein.

This assay addresses T1, GST-MAGE-C2 (UniProt Q9UBF1).
T1 sequence: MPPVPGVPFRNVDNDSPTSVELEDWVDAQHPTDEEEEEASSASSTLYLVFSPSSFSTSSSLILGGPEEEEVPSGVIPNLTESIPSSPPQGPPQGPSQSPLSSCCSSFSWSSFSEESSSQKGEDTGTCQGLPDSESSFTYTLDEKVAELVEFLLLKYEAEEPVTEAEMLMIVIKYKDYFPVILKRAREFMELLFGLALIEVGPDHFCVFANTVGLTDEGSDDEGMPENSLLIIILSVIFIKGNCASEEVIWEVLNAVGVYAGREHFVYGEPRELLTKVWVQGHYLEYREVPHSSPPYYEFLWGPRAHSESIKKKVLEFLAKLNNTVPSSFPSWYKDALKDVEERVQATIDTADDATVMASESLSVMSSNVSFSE
Description: pull-down; in vitro protein-binding assay with recombinant proteins purified from bacteria: His-FBP1 with GST, GST-TRIM28 or GST-MAGE-C2; western blot; both purified.

In the case of His-FBP1 (human) (enzyme), the binding result was “no binding”.

The values are drawn from article PMC5520498.
